This is an account of results in patent US20210206856A1.

These are yes or no findings as the source states them, for the method shown. A result given as binding can be weak or reduced; the word gives no strength.

The labels stand for the following.
B1: MAdCAM Antibody Table 1 Clone 10 (scFv)
scFv: QVQLVQSGAEVKKPGASVKVSCKASGYTLTTWYMYWVRQAPGQGLEWMGWINPNRGATNYAQKFQGRVTMTRDTSTSTVYMELSSLRSEDTAVYYCAKGDLWGAMDVWGQGTLVTVSSGGGGSGGGGSGGGGSGGGGSDIQMTQSPSSLSASVGDRVTITCRASDNIGSWLAWYQQKPGKAPKLLIYAASSLQSGVPSRFSGSGSGTDFTLTISSLQPEDFATYYCQQGYSTPPTFGQGTKVEIK
B2: MAdCAM Antibody Table 2 Clone 69 (antibody, human IgG1, V domains shown)
VH: QVQLVQSGAEVKKPGASVKVSCKASGYTFTSYYMHWVRQAPGQGLEWMGIIDPSGGSTSYAQKFQGRVTMTRDTSTSTVYMELSSLRSEDTAVYYCAREEWSSGGVGYFDYWGQGTLVTVSS
VL: DIQMTQSPSSLSASVGDRVTITCRASQGISSYLAWYQQKPGKAPKLLIYATSSLQTGVPSRFSGSGSGTDFTLTISSLQPEDFATYYCQQTYSIPITFGQGTRLEIK
B3: MAdCAM Antibody Table 2 Clone 66 (antibody, human IgG1, V domains shown)
VH: QVQLVQSGAEVKKPGASVKVSCKASGYTFTGHYMHWVRQAPGQGLEWMGIINPSGGSTSYAQKFQGRVTMTRDTSTSTVYMELSSLRSEDTAVYYCARDGAWFGEEYYYGMDVWGQGTTVTVSS
VL: DIQMTQSPSSLSASVGDRVTITCRASQGISNWLAWYQQKPGKAPKLLIYDASNLETGVPSRFSGSGSGTDFTLTISSLQPEDFATYYCQQYYSFPLYTFGQGTKVEIK
B4: MAdCAM Antibody Table 1 Clone 11 (scFv)
scFv: QVQLVQSGAEVKKPGASVKVSCKASGYTFTTYYMHWVRQAPGQGLEWMGGFDPEDGETIYAQKFQGRVTMTRDTSTSTVYMELSSLRSEDTAVYYCARHAVAGAVGAGYYYYGMDVWGQGTMVTVSSGGGGSGGGGSGGGGSGGGGSDIQMTQSPSSLSASVGDRVTITCRASESISNWLAWYQQKPGKAPKLLIYAASTLQSGVPSRFSGSGSGTDFTLTISSLQPEDFATYYCQQSYSVPFTFGPGTKVDIK
B5: MAdCAM Antibody Table 1 Clone 8 (scFv)
scFv: EVQLLESGGGLVQPGGSLRLSCAASGFMFGDYAMHWVRQAPGKGLEWVSAISGSGGSTYYADSVKGRFTISRDNSKNTLYLQMNSLRAEDTAVYYCAKDLVVAGIWYFDLWGRGTLVTVSSGGGGSGGGGSGGGGSGGGGSDIQMTQSPSSLSASVGDRVTITCRASQGISNNLNWYQQKPGKAPKLLIYDASSLESGVPSRFSGSGSGTDFTLTISSLQPEDFATYYCQQTHSFPSTFGQGTKLEIK
B6: MAdCAM Antibody Table 1 Clone 3 (scFv)
scFv: QVQLVQSGAEVKKPGASVKVSCKASGYPFIGQYLHWVRQAPGQGLEWMGIINPSGGSTSYAQKFQGRVTMTRDTSTSTVYMELSSLRSEDTAVYYCAREGRLSYGMDAWGQGTLVTVSSGGGGSGGGGSGGGGSGGGGSDIQMTQSPSSLSASVGDRVTITCRASQSISSYLAWYQQKPGKAPKLLIYGASTLESGVPSRFSGSGSGTDFTLTISSLQPEDFATYYCQQTWGPPFTFGQGTKLEIK
B7: MAdCAM Antibody Table 1 Clone 20 (scFv)
scFv: EVQLLESGGGLVQPGGSLRLSCAASGFTFDDYAMHWVRQAPGKGLEWVSYIDTSSSHLYYADSVKGRFTISRDNSKNTLYLQMNSLRAEDTAVYYCARDEAAAGYYGMDVWGQGTTVTVSSGGGGSGGGGSGGGGSGGGGSDIQMTQSPSSLSASVGDRVTITCQAGQDISNYLNWYQQKPGKAPKLLIYDASNLETGVPSRFSGSGSGTDFTLTISSLQPEDFATYYCQQTYSTPITFGQGTKLEIK
B8: MAdCAM Antibody Table 1 Clone 23 (scFv)
scFv: EVQLLESGGGLVQPGGSLRLSCAASGFTFSSYAMHWVRQAPGKGLEWVSGISGSGGSAYYADSVKGRFTISRDNSKNTLYLQMNSLRAEDTAVYYCATSQAPVDYYYYGMDVWGQGTTVTVSSGGGGSGGGGSGGGGSGGGGSDIQMTQSPSSLSASVGDRVTITCRASQSISSWLAWYQQKPGKAPKLLIYAASNLQRGVPSRFSGSGSGTDFTLTISSLQPEDFATYYCQQSYSIPITFGQGTKVEIK

The target of the first experiment is cyno MAdCAM protein (cyno). Put plainly: ELISA.
Consider B1, for which the binding entry is “binds”.

Regarding B2, the binding entry is “binds”.

Take B3: the binding result is listed as “binds”.

For the molecule B4, the binding result is “binds”.

Regarding B5, the binding entry is “binds”.

On to B6, for which the binding entry was “binds”.

Another experiment concerns the target cyno MAdCAM protein (cyno). Put plainly: Octet.
As to B7, the binding result is “binds”.

B8: the binding result is “binds”.
